# Reference: the supplement of paper PMC4604168 (melanoma cell lines)
# This is one part of the list. Many values rest on one well or one pass, so single values are uncertain.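 The apoptosis fraction was the count of cleaved-PARP antibody-stained nuclei relative to all DNA-stained nuclei, imaged in 1,536-well plates. Screening doses were set so most cells survived, and baseline and induced cleaved-PARP levels vary greatly across cell lines.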
# Legend:
# Assay in all cases: cleaved PARP positive nuclei fraction relative to DMSO control; melanoma cells; higher = more apoptosis
# Settings in all cases: library dose: low library concentration; 72 h
# [1] = system: 501Mel
# [2] = system: A101D
# [3] = system: A2058
# [4] = system: A375
# [5] = system: C32
# [6] = system: CBRC008 (line from a melanoma biopsy)
# [7] = system: CBRC013 (line from a melanoma biopsy)
# [8] = system: CBRC014 (line from a melanoma biopsy)
# [9] = system: CBRC016 (line from a melanoma biopsy)
# [10] = system: CBRC017 (line from a melanoma biopsy)
SMILES,cleaved PARP positive nuclei fraction [1] [%],cleaved PARP positive nuclei fraction [2] [%],cleaved PARP positive nuclei fraction [3] [%],cleaved PARP positive nuclei fraction [4] [%],cleaved PARP positive nuclei fraction [5] [%],cleaved PARP positive nuclei fraction [6] [%],cleaved PARP positive nuclei fraction [7] [%],cleaved PARP positive nuclei fraction [8] [%],cleaved PARP positive nuclei fraction [9] [%],cleaved PARP positive nuclei fraction [10] [%]
"C[As](C)SC[C@H](NC(=O)CC[C@H](N)C(=O)O)C(=O)NCC(=O)O [Darinaparsin] + NCC(=O)Nc1ccc(-n2nc(C(F)(F)F)cc2-c2ccc3c(ccc4ccccc43)c2)cc1 [OSU03012] (first compound 0.4 µM, partner dose 1 µM)",355,78.6,57.8,5400,43.2,70.5,129,95.8,82.5,87.7
"O=C(O)c1ccc2c(c1)nc(Nc1cccc(Cl)c1)c1ccncc12 + C[As](C)SC[C@H](NC(=O)CC[C@H](N)C(=O)O)C(=O)NCC(=O)O [Darinaparsin] (first compound 0.4 µM, partner dose 0.4 µM)",182,127,179,143,85.4,78.1,–,350,187,350
"N.N.[Cl][Pt][Cl] [cisplatin] + C[C@@H]1CCN(C(=O)CC#N)C[C@@H]1N(C)c1ncnc2[nH]ccc12 [CP690550] (first compound 1.6 µM, partner dose 1 µM)",123,185,87.3,81,116,127,50.8,92.9,174,80.8
"Cc1cc(Nc2cc(N3CCN(C)CC3)nc(/C=C/c3ccccc3)n2)n[nH]1 + N.N.[Cl][Pt][Cl] [cisplatin] (first compound 0.04 µM, partner dose 1.6 µM)",137,24.9,116,105,92.7,88.5,–,100,128,129
"Cn1cc(C2=C(c3cn(C4CCN(Cc5ccccn5)CC4)c4ccccc34)C(=O)NC2=O)c2ccccc21 [Enzastaurin] + Nc1cccc2c1CN(C1CCC(=O)NC1=O)C2=O [lenalidomide] (first compound 0.8 µM, partner dose 1 µM)",80.5,197,67.9,241,75.8,105,–,107,67.3,218
"C[As](C)SC[C@H](NC(=O)CC[C@H](N)C(=O)O)C(=O)NCC(=O)O [Darinaparsin] + Cc1cc(N2CCOCC2)cc2[nH]c(-c3c(NC[C@@H](O)c4cccc(Cl)c4)cc[nH]c3=O)nc12 [BMS536924] (first compound 0.4 µM, partner dose 0.2 µM)",132,78.5,107,278,75.7,230,114,86.5,57.5,116
"Cn1cc(C2=C(c3cn(C4CCN(Cc5ccccn5)CC4)c4ccccc34)C(=O)NC2=O)c2ccccc21 [Enzastaurin] + CN(NC(=O)CC(=O)NN(C)C(=S)c1ccccc1)C(=S)c1ccccc1 [STA4783] (first compound 0.8 µM, partner dose 0.006 µM)",139,93,192,7130,119,3260,64.9,1150,90.1,267
"N.N.[Cl][Pt][Cl] [cisplatin] + O=C(Nc1cccc(Cl)c1)Nc1ncc(CCNc2ncnc3ccsc23)s1 [SNS314] (first compound 1.6 µM, partner dose 0.0008 µM)",48.3,78.5,72.6,193,178,219,88.3,89.5,63.1,112
"COc1cc([C@@H]2c3cc4c(cc3[C@@H](O[C@@H]3O[C@@H]5CO[C@@H](C)O[C@H]5[C@H](O)[C@H]3O)[C@H]3COC(=O)[C@H]23)OCO4)cc(OC)c1O [etoposide] + N.N.[Cl][Pt][Cl] [cisplatin] (first compound 0.02 µM, partner dose 1.6 µM)",144,94.5,190,268,89.4,105,–,131,119,–
"Cn1cc(C2=C(c3cn(C4CCN(Cc5ccccn5)CC4)c4ccccc34)C(=O)NC2=O)c2ccccc21 [Enzastaurin] + O=C(Nc1cccc(Cl)c1)Nc1ncc(CCNc2ncnc3ccsc23)s1 [SNS314] (first compound 0.8 µM, partner dose 0.0008 µM)",180,23.8,63.2,36.7,77.8,99.9,102,83.8,300,75.9
"N.N.[Cl][Pt][Cl] [cisplatin] + OCCn1cc(-c2cnc3nnn(Cc4ccc5ncccc5c4)c3n2)cn1 [PF04217903] (first compound 1.6 µM, partner dose 1 µM)",234,182,104,114,77.3,219,76.7,103,211,106
"Cn1cc(C2=C(c3cn(C4CCN(Cc5ccccn5)CC4)c4ccccc34)C(=O)NC2=O)c2ccccc21 [Enzastaurin] + O=C(O)c1ccc(-c2c[nH]c3ncc(-c4ccccc4)cc23)cc1C1CCCC1 [GSK650394] (first compound 0.8 µM, partner dose 0.16 µM)",88,96.1,46.5,55.7,77.1,78.9,70.9,337,108,129
"C[C@]12O[C@H](C[C@]1(O)CO)n1c3ccccc3c3c4c(c5c6ccccc6n2c5c31)CNC4=O [Lestaurtinib] + COCC[n+]1c2c(n(Cc3cnccn3)c1C)C(=O)c1ccccc1C2=O [YM155] (first compound 0.004 µM, partner dose 0.0004 µM)",62.1,91.8,65.3,48.9,71.6,295,–,101,95.6,130
"C[C@]12O[C@H](C[C@]1(O)CO)n1c3ccccc3c3c4c(c5c6ccccc6n2c5c31)CNC4=O [Lestaurtinib] + C#Cc1cccc(Nc2ncnc3cc(OCCOC)c(OCCOC)cc23)c1 [erlotinib] (first compound 0.004 µM, partner dose 0.8 µM)",98.6,106,228,59.3,81.5,265,–,94.5,44.8,86.9
"Cn1cnc2c(F)c(Nc3ccc(Br)cc3Cl)c(C(=O)NOCCO)cc21 [selumetinib] + C[C@]12O[C@H](C[C@]1(O)CO)n1c3ccccc3c3c4c(c5c6ccccc6n2c5c31)CNC4=O [Lestaurtinib] (first compound 0.015 µM, partner dose 0.004 µM)",185,119,107,134,96.5,150,–,94,70,177
"CCCCCCCCCCCCCCCCCCOP(=O)([O-])OC1CC[N+](C)(C)CC1 [Perifosine] + N.N.[Cl][Pt][Cl] [cisplatin] (first compound 0.4 µM, partner dose 1.6 µM)",133,193,203,121,82.6,49.2,–,101,128,116
"N#CC[C@H](C1CCCC1)n1cc(-c2ncnc3[nH]ccc23)cn1 [ruxolitinib] + C[As](C)SC[C@H](NC(=O)CC[C@H](N)C(=O)O)C(=O)NCC(=O)O [Darinaparsin] (first compound 1 µM, partner dose 0.4 µM)",89.6,78.8,93.1,38.3,143,123,–,95.5,169,106
"Cc1cn(-c2cc(NC(=O)c3ccc(C)c(Nc4nccc(-c5cccnc5)n4)c3)cc(C(F)(F)F)c2)cn1 [nilotinib] + N.N.[Cl][Pt][Cl] [cisplatin] (first compound 0.2 µM, partner dose 1.6 µM)",224,105,107,111,258,103,–,103,166,132
"N.N.[Cl][Pt][Cl] [cisplatin] + CNC(=O)c1cc(Oc2ccc(NC(=O)Nc3ccc(Cl)c(C(F)(F)F)c3)cc2)ccn1 [sorafenib] (first compound 1.6 µM, partner dose 0.4 µM)",140,51.2,94.7,143,73.9,142,–,221,275,117
"Cc1cc(Nc2cc(N3CCN(C)CC3)nc(Sc3ccc(NC(=O)C4CC4)cc3)n2)n[nH]1 [Tozasertib] + C[As](C)SC[C@H](NC(=O)CC[C@H](N)C(=O)O)C(=O)NCC(=O)O [Darinaparsin] (first compound 0.006 µM, partner dose 0.4 µM)",94.5,145,108,99.3,70.4,60.9,–,103,148,169
"Cc1cn(-c2cc(NC(=O)c3ccc(C)c(Nc4nccc(-c5cccnc5)n4)c3)cc(C(F)(F)F)c2)cn1 [nilotinib] + Cn1cc(C2=C(c3cn(C4CCN(Cc5ccccn5)CC4)c4ccccc34)C(=O)NC2=O)c2ccccc21 [Enzastaurin] (first compound 0.2 µM, partner dose 0.8 µM)",81.5,123,56.3,36,76.5,78.5,–,94.5,59,111
"Cc1cc(Nc2cc(N3CCN(C)CC3)nc(Sc3ccc(NC(=O)C4CC4)cc3)n2)n[nH]1 [Tozasertib] + N.N.[Cl][Pt][Cl] [cisplatin] (first compound 0.006 µM, partner dose 1.6 µM)",80.4,106,31.3,103,75.6,49,–,100,208,126

# Fetched one by one from above (2):
SMILES,cleaved PARP positive nuclei fraction [1] [%],cleaved PARP positive nuclei fraction [2] [%],cleaved PARP positive nuclei fraction [3] [%],cleaved PARP positive nuclei fraction [4] [%],cleaved PARP positive nuclei fraction [5] [%],cleaved PARP positive nuclei fraction [6] [%],cleaved PARP positive nuclei fraction [7] [%],cleaved PARP positive nuclei fraction [8] [%],cleaved PARP positive nuclei fraction [9] [%],cleaved PARP positive nuclei fraction [10] [%]
"Cn1cc(C2=C(c3cn(C4CCN(Cc5ccccn5)CC4)c4ccccc34)C(=O)NC2=O)c2ccccc21 [Enzastaurin] + O=C(Nc1cccc(Cl)c1)Nc1ncc(CCNc2ncnc3ccsc23)s1 [SNS314] (first compound 0.8 µM, partner dose 0.0008 µM)",180,23.8,63.2,36.7,77.8,99.9,102,83.8,300,75.9
"Cn1cc(C2=C(c3cn(C4CCN(Cc5ccccn5)CC4)c4ccccc34)C(=O)NC2=O)c2ccccc21 [Enzastaurin] + CN(NC(=O)CC(=O)NN(C)C(=S)c1ccccc1)C(=S)c1ccccc1 [STA4783] (first compound 0.8 µM, partner dose 0.006 µM)",139,93,192,7130,119,3260,64.9,1150,90.1,267
